According to patent US20090099107A1:
These are yes or no findings as the source states them, for the method shown. In cells and extracts the contact can be indirect. Some entries that bind do so weakly or less than the wild type.

By UniProt entry, the sequences of proteins in these tests, tags left out. Where a name states a change or a piece, a line headed by the entry shows the natural chain unless it says otherwise. Residues count along the entry.
UniProt P25799, residues 1-433: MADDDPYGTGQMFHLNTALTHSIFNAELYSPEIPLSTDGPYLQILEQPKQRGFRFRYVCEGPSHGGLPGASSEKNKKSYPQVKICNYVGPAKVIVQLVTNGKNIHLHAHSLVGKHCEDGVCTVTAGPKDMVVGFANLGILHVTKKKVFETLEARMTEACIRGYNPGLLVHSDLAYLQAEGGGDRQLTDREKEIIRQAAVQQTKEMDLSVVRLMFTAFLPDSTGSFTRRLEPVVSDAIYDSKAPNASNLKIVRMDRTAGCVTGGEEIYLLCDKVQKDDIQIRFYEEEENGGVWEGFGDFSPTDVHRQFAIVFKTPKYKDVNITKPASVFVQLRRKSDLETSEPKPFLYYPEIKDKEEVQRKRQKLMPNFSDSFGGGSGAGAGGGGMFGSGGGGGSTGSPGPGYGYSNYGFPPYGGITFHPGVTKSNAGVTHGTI

Target: NF-kB p50 (untagged, transfected) (UniProt P25799)
Assay: co-immunoprecipitation from co-transfected CHO-CD14 cells, anti-gp10 IP, immunoblot

Substance: p105(sr), p105-based NF-kB super repressor (murine p105 with residues 356-498 and 800-971 deleted, N-terminal gp10 epitope tag) (from UniProt P25799 1-800)
- binding: binds
